Molecules are shown by their SMILES. ± gives the standard deviation of the averaged measurements. The full ranking holds about 1,800 compounds; the median of “GFP- (p16Ink4a-) cell count relative to negative-control wells” is about 0.99, and the lowest 2% start at about 0.5. The list shows a part of the results.

For the experiment, the system named is mouse p16Ink4a+/- lung fibroblasts (INKBRITE, bleomycin-injured). Briefly: GFP- (p16Ink4a-) cell count relative to negative-control wells (fold of vehicle); higher = more p16Ink4a- cells surviving. To be noted: 1 µM; 3 days.
The molecule `O=C(NC1CCNCC1)c1n[nH]cc1NC(=O)c1c(Cl)cccc1Cl` displayed a GFP- of 1.15.
`Cc1ccc(S(=O)(=O)Nc2nc3ccccc3nc2Nc2ccc3nsnc3c2)cc1` yielded a GFP- of 1.02.
With `O=C(O)c1ccc(-n2nc(-c3ccccc3O)nc2-c2ccccc2O)cc1` [Deferasirox] the figure was 0.656; with `COc1cc(OC2CCN(C)CC2)ccc1Nc1ncc2c(n1)n(C1CCCC1)c(=O)n2C`, 0.875; with `CCCc1cc(O)nc(S)n1` [Propylthiouracil], 1.03.
The same measure for `CC(=O)O/N=C1/C(=O)N(Cc2cc(Cl)ccc2Cl)c2ccc(Cl)cc21`: 0.961; for `C[C@]12CC[C@@H]3c4ccc(O)cc4C[C@@H](CCCCCCCCCS(=O)CCCC(F)(F)C(F)(F)F)[C@H]3[C@@H]1CC[C@@H]2O` (some centres undefined) [Fulvestrant]: 1.15; for `O=c1[nH]c(=O)n([C@H]2C[C@H](O)[C@@H](CO)O2)cc1C(F)(F)F` [Trifluridine]: 0.95.
With `COc1cc(OC)c(/C=C/S(=O)(=O)Cc2ccc(OC)c(NCC(=O)O)c2)c(OC)c1` [Rigosertib] the figure was 0.916; with `O=C(/C=C/c1ccc(O)cc1)c1ccc(O)cc1O` [Isoliquiritigenin], 0.95; with `COC1CCN(C(=O)c2cc(Cc3nnc(O)c4ccccc34)ccc2F)CC1`, 0.855 ± 0.061.
For the molecule `Cc1[nH]c(/C=C2\C(=O)Nc3ccccc32)c(C)c1CCC(=O)O` [Orantinib], the GFP- stood at 1.09.
With `Cc1oncc1C(=O)Nc1ccc(C(F)(F)F)cc1` [Lefunamide, Leflunomide] the figure was 1.11; with `C[C@@H]1C[C@H]2[C@@H]3CCC4=CC(=O)C=C[C@]4(C)[C@@]3(F)[C@@H](O)C[C@]2(C)[C@@]1(O)C(=O)CO` [Dexamethasone], 1.1; with `CCC(=O)Nc1cccc(Oc2nc(Nc3ccc(N4CCN(C)CC4)cc3OC)ncc2Cl)c1`, 1.15.
The same measure for `C/C(=N\NC(=S)N1CCC1)c1ccccn1`: 0.4; for `CCCCCCNC(=O)n1cc(F)c(=O)[nH]c1=O` [Carmofur]: 0.702; for `C[C@H](NCc1ccc(OCc2cccc(F)c2)cc1)C(N)=O` [Safinamide]: 1.06.
The same measure for `C[C@@]1(c2cc(-c3cncnc3)c(F)cc2F)CCSC(N)=N1`: 1.06; for `Nc1nc(N)c2nc(-c3ccccc3)c(N)nc2n1` [Triamterene]: 1.06.
The molecule `O=C1NCCc2[nH]c(-c3ccncc3)cc21` returned a GFP- of 0.999.
Molecule `Cn1c(=O)c(F)c(Nc2ccc(I)cc2F)c2c(=O)n(C[C@@H](O)CO)cnc21` gave a GFP- of 0.862.
The molecule `Cc1cccc(N(C)C(=S)Oc2ccc3ccccc3c2)c1` [Tolnaftate] showed a GFP- of 0.981.
Consider `C[C@H]1C[C@H]2[C@@H]3CCC4=CC(=O)C=C[C@]4(C)[C@@]3(F)[C@@H](O)C[C@]2(C)[C@@]1(O)C(=O)CO` [Betamethasone], for which the GFP- turned out to be 1.06.

The values are drawn from the supplement of paper PMC11060735.
